Measured values taken from publication doi:10.1101/727578.
Positions count from the first letter of the chain named. No constants are given. Whether binding was seen depends on the method and setting. In cells and extracts the contact can be indirect. Some results given as binding are weak or reduced against the parent protein; the word gives no strength. Tags and fused reporters may be left off the sequences shown.

Protein sequences, listed by entry. Tags and fused reporters are not part of them. Lines headed by an entry give the natural chain unless they say otherwise; changes in a name come on top.
UniProt Q8N4B1, whole entry: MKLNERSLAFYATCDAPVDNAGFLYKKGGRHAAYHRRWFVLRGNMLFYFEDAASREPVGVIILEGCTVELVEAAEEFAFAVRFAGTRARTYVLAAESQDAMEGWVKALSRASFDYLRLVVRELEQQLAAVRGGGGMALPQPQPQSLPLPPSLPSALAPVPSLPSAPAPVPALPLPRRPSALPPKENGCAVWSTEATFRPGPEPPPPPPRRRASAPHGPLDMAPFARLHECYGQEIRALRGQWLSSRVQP
UniProt Q01968, whole entry: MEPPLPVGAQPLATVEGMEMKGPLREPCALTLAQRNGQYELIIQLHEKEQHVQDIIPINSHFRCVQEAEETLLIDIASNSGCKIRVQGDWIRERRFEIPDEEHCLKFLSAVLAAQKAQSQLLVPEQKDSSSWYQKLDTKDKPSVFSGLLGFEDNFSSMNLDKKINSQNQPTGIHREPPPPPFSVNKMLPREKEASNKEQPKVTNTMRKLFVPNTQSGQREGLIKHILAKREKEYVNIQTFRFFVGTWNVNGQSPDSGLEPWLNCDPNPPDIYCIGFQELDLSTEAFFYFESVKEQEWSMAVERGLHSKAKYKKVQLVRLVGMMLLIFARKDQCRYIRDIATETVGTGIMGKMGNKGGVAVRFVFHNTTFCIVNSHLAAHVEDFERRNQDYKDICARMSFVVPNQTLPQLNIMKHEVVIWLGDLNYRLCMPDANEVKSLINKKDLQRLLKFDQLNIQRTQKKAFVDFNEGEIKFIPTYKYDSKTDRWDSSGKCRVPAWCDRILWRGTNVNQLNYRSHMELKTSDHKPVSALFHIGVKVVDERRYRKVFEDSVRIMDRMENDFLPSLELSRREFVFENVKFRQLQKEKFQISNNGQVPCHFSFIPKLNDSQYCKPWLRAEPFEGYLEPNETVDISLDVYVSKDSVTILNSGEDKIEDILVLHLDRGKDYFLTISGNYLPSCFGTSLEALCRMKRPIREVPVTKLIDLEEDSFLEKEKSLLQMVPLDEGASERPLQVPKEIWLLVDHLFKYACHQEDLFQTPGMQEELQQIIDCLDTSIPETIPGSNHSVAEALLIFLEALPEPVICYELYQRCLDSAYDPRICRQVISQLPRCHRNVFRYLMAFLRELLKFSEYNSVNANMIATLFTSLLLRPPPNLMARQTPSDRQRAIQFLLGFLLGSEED

Experiments:
[1] = biological target: T1, GFP-tagged full length PHETA1^R6C (human) (UniProt Q8N4B1); test: co-IP
T1 sequence: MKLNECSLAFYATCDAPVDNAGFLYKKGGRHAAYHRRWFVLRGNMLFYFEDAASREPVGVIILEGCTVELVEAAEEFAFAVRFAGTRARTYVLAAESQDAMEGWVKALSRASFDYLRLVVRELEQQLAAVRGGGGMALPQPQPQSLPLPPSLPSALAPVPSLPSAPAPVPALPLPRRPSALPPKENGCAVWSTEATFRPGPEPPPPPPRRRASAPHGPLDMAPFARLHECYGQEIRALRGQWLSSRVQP

[2] = biological target: T2, GFP-tagged full length WT PHETA1 (human) (UniProt Q8N4B1); test: co-IP
T2 sequence: T1 sequence with C6R

binding [1]: binds
binding [2]: binds
Substance: full length HA-tagged OCRL1 (from UniProt Q01968 1-901) (enzyme)
